PubChem BioAssay AID1259308, NCATS – 2017
Screen: 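Genes whose loss raises luciferase production in HEK293 cells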 (primary screen). Cell system: human HEK293 embryonic kidney cells stably expressing firefly luciferase (HEK-CMV-Luc2-Hygro). Reagents: single siRNA against human genes, 0.8 pmol siRNA per well. Duration: 72 h. Measurement: 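Reporter luminescence and viable-cell signal on separate replicate plates, given as percent of non-targeting control and median/MAD z-scores, plus per-cell luciferase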. Reading the numbers: total luciferase, z-score and total luciferase, % of control: higher = more reporter protein produced; luciferase per cell, z-score: higher = more reporter output per viable cell. Call rule: 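Active when the median/MAD z-score for overall luciferase is greater than 3; a gene was taken forward for validation with new siRNAs if at least two of its three siRNAs passed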. Calls: active = raised luciferase; inactive = no rise.
The deposit covers about 59,000 reagents; below is an unselected part. About 1,510 of all reagents (2.6%) count as active. 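Calls use total luciferase alone and ignore viability, so some active siRNAs may act by altering cell number.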 Unmarked entries are inactive. The numbers tell different reagents against one gene apart. Not all columns of the deposit are shown. Reagent sequences are not shown.

gene symbol | siRNA no. | total luciferase, z-score | total luciferase, % of control | luciferase per cell, z-score
LLGL1 (LLGL scribble cell polarity complex component 1) | 1 | 4.26 (active) | 167 | 2.24
LLGL1 (LLGL scribble cell polarity complex component 1) | 2 | -2.9 | 24.2 | -2.03
LLGL1 (LLGL scribble cell polarity complex component 1) | 3 | -0.0884 | 80.1 | -0.559
TAS2R43 (taste 2 receptor member 43) | 1 | -1.06 | 60.9 | -1.13
TAS2R43 (taste 2 receptor member 43) | 2 | -0.777 | 66.4 | -0.565
TAS2R43 (taste 2 receptor member 43) | 3 | 0.428 | 90.4 | 0.605
HNRNPUL1 (heterogeneous nuclear ribonucleoprotein U like 1) | 1 | -0.274 | 76.4 | -1.02
HNRNPUL1 (heterogeneous nuclear ribonucleoprotein U like 1) | 2 | 0.627 | 94.4 | 0.269
HNRNPUL1 (heterogeneous nuclear ribonucleoprotein U like 1) | 3 | -1.4 | 53.9 | -0.503
CRTAP (cartilage associated protein) | 1 | 0.449 | 90.8 | 0.372
CRTAP (cartilage associated protein) | 2 | -1.46 | 52.8 | -0.966
CRTAP (cartilage associated protein) | 3 | -1.26 | 56.8 | -1.36
TAF1B | 1 | -0.0457 | 81 | -0.283
TAF1B | 2 | 0.516 | 92.1 | 1.93
TAF1B | 3 | -0.694 | 68.1 | 0.993
RIF1 (replication timing regulatory factor 1) | 1 | 2.66 | 135 | 1.81
RIF1 (replication timing regulatory factor 1) | 2 | 1.76 | 117 | 0.945
RIF1 (replication timing regulatory factor 1) | 3 | 1.44 | 111 | 1
ADM5 (adrenomedullin 5 (putative)) | 1 | -1.32 | 55.7 | -1.44
ADM5 (adrenomedullin 5 (putative)) | 2 | 0.747 | 96.7 | 0.339
ADM5 (adrenomedullin 5 (putative)) | 3 | 0.0623 | 83.1 | -0.311
CHAF1A (chromatin assembly factor 1 subunit A) | 1 | 5.35 (active) | 188 | 3.56
CHAF1A (chromatin assembly factor 1 subunit A) | 2 | 3.1 (active) | 144 | 3.34
CHAF1A (chromatin assembly factor 1 subunit A) | 3 | 5.3 (active) | 187 | 2.64
LRFN2 | 1 | 0.205 | 86 | 0.352
LRFN2 | 2 | 0.554 | 92.9 | 0.647
LRFN2 | 3 | -1.04 | 61.2 | -0.0132
HADHA | 1 | -0.218 | 77.6 | -0.00609
HADHA | 2 | -0.0106 | 81.7 | 0.343
HADHA | 3 | -1.66 | 49 | -1.81
DGAT2 (diacylglycerol O-acyltransferase 2) | 1 | 2.54 | 132 | 1.35
DGAT2 (diacylglycerol O-acyltransferase 2) | 2 | -0.957 | 62.9 | -0.925
DGAT2 (diacylglycerol O-acyltransferase 2) | 3 | -1.34 | 55.2 | -2.02
ING4 (inhibitor of growth family member 4) | 1 | 0.232 | 86.5 | 0.51
ING4 (inhibitor of growth family member 4) | 2 | -2.26 | 37 | -2.57
ING4 (inhibitor of growth family member 4) | 3 | 0.88 | 99.4 | 0.616
METAP1D (methionyl aminopeptidase type 1D, mitochondrial) | 1 | -0.637 | 69.2 | -0.417
METAP1D (methionyl aminopeptidase type 1D, mitochondrial) | 2 | -2.09 | 40.3 | -2.73
METAP1D (methionyl aminopeptidase type 1D, mitochondrial) | 3 | -0.758 | 66.8 | -0.587

Part of the list above, showing only “total luciferase, z-score”.
ADM5 (adrenomedullin 5 (putative)) #2	0.747
ADM5 (adrenomedullin 5 (putative)) #3	0.0623
CHAF1A (chromatin assembly factor 1 subunit A) #1	5.35 (active)
CHAF1A (chromatin assembly factor 1 subunit A) #2	3.1 (active)
